# Values joined by “and” are separate entries in the source; they are usually repeats but may differ in a detail not shown here. Identical values can stand only once. Out of some 300,000 compounds screened, about 5,400 (1.8%) were called active. Inconclusive results, whose numbers are uncertain, are shown with a selection of clear calls. The call rests on the fitted dose curve; tested in HEK293 cells. Potencies beside an inconclusive call are fits to weak or partial responses and may not hold up.
# Assay: qHTS for inhibitors of binding or entry into cells for Marburg Virus
# Conditions: Marburg virus pseudotyped entry inhibition, cell reporter; series mostly up to 37.8 µM
# Potency means the concentration at half of the fitted maximal effect.
row,Structure (SMILES),Potency
1,O=Cc1ccc(N2CCCCC2)cc1,inactive
2,CCOc1cc(CNc2ccc(OC)cc2)cc(Br)c1OCC(=O)NC(C)(C)C,"inconclusive: 25.9 µM [inhibitor, single point]"
3,O=C(C1CCN(S(=O)(=O)c2cccc3nsnc23)CC1)N1CCCc2ccccc21,"inconclusive: 35.5 µM [inhibitor, single point]"
4,c1ccc(CNC2CCCCCCC2)cc1 (tested in a mixture with another compound),"inconclusive: 35.5 µM [inhibitor, single point]"
5,Cc1cc(/C(N)=N/OC(=O)c2cccc(Cl)c2)no1,"inconclusive: 11.2 µM [activator, partial curve, poor fit]"
6,Cc1cc(C)c(OCCCCNCc2ccccc2)c(Cl)c1,"inconclusive: 6.51 µM [inhibitor, full curve, poor fit]"
7,COc1ccc2c(c1)C=CC1(O2)N(CCO)c2ccccc2C1(C)C (configuration not stated),"inconclusive: 32.6 µM [inhibitor, single point]"
8,Cc1ccc(CN2CCSc3ccc(C(=O)Nc4ccc(C)cc4)cc32)cc1,"inconclusive: 5.62 µM [activator, single point]"
9,Cn1cccc1C(=O)OCC(=O)NC(=O)c1ccc(Cl)cc1,"inconclusive: 20 µM [inhibitor, single point]"
10,COc1cc(Cl)c(C)cc1NC(=S)NN,"inconclusive: 3.55 µM [inhibitor, single point]"
11,CCOC(=O)c1c(C)c(C(=O)NCc2ccc3c(c2)OCO3)c(C)n1CC,"inconclusive: 164 nM [inhibitor, full curve, poor fit] and inconclusive: 6.31 µM [activator, single point]"
12,CC(=O)NNC(=O)c1sc(=S)n2c1[nH]c(=O)c1sccc12,"inconclusive: 5.62 µM [inhibitor, single point]"
13,Cc1cccc(OCCCC(=O)Nc2ccccc2C(F)(F)F)c1,"inconclusive: 35.5 µM [inhibitor, single point]"
14,CCN1CCc2nc(NC(=O)C(c3ccccc3)c3ccccc3)sc2C1,"inconclusive: 22.4 µM [inhibitor, single point]"
15,Cc1onc(-c2ccccc2)c1C(=O)NCC1COc2ccccc2O1 (configuration not stated),inactive
16,COc1ccc(-c2cc(C(=O)OCC(=O)N(C)C3CCS(=O)(=O)C3)c3ccccc3n2)cc1OC (configuration not stated),"inconclusive: 7.08 µM [activator, full curve, poor fit]"
17,CC(C)COc1ccc(C(=O)OC2CC(C)(C)OCC2CN(C)C)cc1 (configuration not stated),"inconclusive: 3.55 µM [inhibitor, partial curve, poor fit]"

# — PubChem BioAssay AID540276 (National Center for Advancing Translational Sciences (NCATS), 2011)
